Source: patent publication US20220144921A1
Results are given in words; binding and its absence hold for the method and conditions named. Some entries that bind do so weakly or less than the wild type.

B1: biotinylated MAb 6D4B10 (antibody, V domains shown)
VH: EVQLQQSGPELVKPGASVKMSCKASGYTFTSYVMHWVKQKPGQGLEWIGYLNPYNDDTKYNEKFKGKATLTSDKSSSTAYMELSSLTSEDSAVYYCAYGPPYALDYWGQGTSVTVSS
VL: QIVLTQSPAIMTASLGERVTMTCTASSSVSSSYLHWYQQKPGSSPKLWIYSTSNLASGVPARFSGSGSGTSYSLTISSMEAEDAATYYCHQYHRSPYTFGGGTKLEIK
B2: biotinylated MAb 8A6F2 (antibody, V domains shown)
VH: DVQLQESGPDLVKPSQSLSLTCTVTGYSITSGYNWHWIRQFPGNKLEWMGYIHYSGGTNYNPSLKSRISITRDTSKNQFFLQLNSVTTEDTATYYCARRTGTVPFAYWGQGTLVTVSA
VL: EIVLTQSPALMAASPGEKVTITCSVSSSISSSNLHWYQQKSETSPKPWIYGTSNLASGVPVRFSGSGSGTSYSLTISSMEAEDAATYYCQQWSSYPLTFGGGTKLEIK

Experiments:
[1] = molecular target: unfused recombinant non-structural protein 1 of DENV4 (Dengue virus serotype 4) (UniProt P09866); test: NS1 capture ELISA, detection antibody
[2] = molecular target: native NS1 in culture supernatant of DENV4-infected Vero cells (Dengue virus serotype 4) (UniProt P09866); test: NS1 capture ELISA, biotinylated 6D4B10 as detector antibody
[3] = molecular target: unfused recombinant non-structural protein 1 of DENV4 (Dengue virus serotype 4) (UniProt P09866); test: as above
[4] = molecular target: unfused recombinant non-structural protein 1 of DENV4 (Dengue virus serotype 4) (UniProt P09866); test: direct ELISA on coated DENV4 rNS1 (data not shown)

Binder	binding [1]	binding [2]	binding [3]	binding [4]
B1	binds	binds	binds	–
B2	–	–	–	binds
